These are yes or no findings as the source states them, for the method shown. Sequences can lack the tags named with a protein.

In this test the target is Drosophila melanogaster Suppressor of Fused (Drosophila melanogaster) (UniProt Q9VG38). The test is described as follows: SEC-SAXS.

B1: Drosophila melanogaster Suppressor of Fused (protein, UniProt Q9VG38 1-468)
chain: MAEANLDKKPEVKPPPGLKAIIDHLGQVYPNQPNPLQVTTLLKYWLGGQDPLDYISMYNYPGDVDRNVPPHWHYISFGLSDLHGDERVHLREEGVTRSGMGFELTFRLAKTEIELKQQIENPEKPQRPPTWPANLLQAIGRYCFQTGNGLCFGDNIPWRKSLDGSTTSKLQNLLVAQDPQLGCIDTPTGTVDFCQIVGVFDDELEQASRWNGRGVLNFLRQDMQTGGDWLVTNMDRQMSVFELFPETLLNLQDDLEKQGSDLAGVNADFTFRELKPTKEVKEEVDFQALSEKCANDENNRQLTDTQMKREEPSFPQSMSMSSNSLHKSCPLDFQAQAPNCISLDGIEITLAPGVAKYLLLAIKDRIRHGRHFTFKAQHLALTLVAESVTGSAVTVNEPYGVLGYWIQVLIPDELVPRLMEDFRSAGLDEKCEPKERLELEWPDKNLKLIIDQPEPVLPMSLDAAPLKM
On to B1, for which the binding entry is on record as “no binding”.

Source of the values: publication doi:10.1101/2021.06.14.447554.
